Structures can show the parent of a compound that is named as a salt. Some of the results follow. The calls rarely recur for the same compound in another form.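 Kinases, fused to nanoluciferase, were expressed in K562 cells; luminescence was measured every 4 h from 2 to 18 h as percent of control (DMSO = 100%, positive control = 0%). A time point is decreased if signal falls significantly (2 sigma). Hits were called by the authors by a rule that is not shown; the count of time points alone does not decide it.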
Columns and labels:
Test in all cases: number of time points (of 5) at which kinase-Nluc abundance scored as decreased, DMSO-normalised (count); higher = more persistent destabilization
Conditions in all cases: K562; 2-18 h
[1] = biological target: NTRK3 (UniProt Q16288)
[2] = biological target: PAK4 (UniProt O96013)
[3] = biological target: PBK (UniProt Q96KB5)
[4] = biological target: PDGFRB (UniProt P09619)
[5] = biological target: PDK1 (UniProt Q15118)
[6] = biological target: PDPK1 (UniProt O15530)
[7] = biological target: PIK4CA (UniProt P42356)
[8] = biological target: PIK4CB (UniProt Q9UBF8)
[9] = biological target: PLK1 (UniProt P53350)
[10] = biological target: PRKAA1 (UniProt Q13131)

Chains of the proteins cited; added tags and fusions are not shown. Lines headed by an entry give the natural chain unless they say otherwise; changes in a name come on top.
UniProt Q16288, whole entry, looked up: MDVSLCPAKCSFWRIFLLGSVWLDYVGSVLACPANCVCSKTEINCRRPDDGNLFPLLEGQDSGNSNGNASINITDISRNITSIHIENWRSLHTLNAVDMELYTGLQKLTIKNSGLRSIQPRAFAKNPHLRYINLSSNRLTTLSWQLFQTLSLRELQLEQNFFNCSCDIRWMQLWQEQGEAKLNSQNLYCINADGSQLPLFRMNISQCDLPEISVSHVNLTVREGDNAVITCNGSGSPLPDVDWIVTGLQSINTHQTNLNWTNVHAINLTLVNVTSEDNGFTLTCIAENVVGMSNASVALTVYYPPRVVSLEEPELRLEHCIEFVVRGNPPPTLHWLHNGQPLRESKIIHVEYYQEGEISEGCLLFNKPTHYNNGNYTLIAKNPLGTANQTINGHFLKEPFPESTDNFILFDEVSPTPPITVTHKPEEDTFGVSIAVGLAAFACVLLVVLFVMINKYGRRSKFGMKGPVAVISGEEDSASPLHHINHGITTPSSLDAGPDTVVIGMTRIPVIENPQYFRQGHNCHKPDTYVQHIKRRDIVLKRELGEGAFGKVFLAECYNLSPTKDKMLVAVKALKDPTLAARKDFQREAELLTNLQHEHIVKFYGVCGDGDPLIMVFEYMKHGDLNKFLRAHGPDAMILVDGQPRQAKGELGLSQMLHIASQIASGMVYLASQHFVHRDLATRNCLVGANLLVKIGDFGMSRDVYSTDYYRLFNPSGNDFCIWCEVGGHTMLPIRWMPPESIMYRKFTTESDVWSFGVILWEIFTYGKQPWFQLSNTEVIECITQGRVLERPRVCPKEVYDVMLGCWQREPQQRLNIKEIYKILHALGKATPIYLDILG
UniProt O96013: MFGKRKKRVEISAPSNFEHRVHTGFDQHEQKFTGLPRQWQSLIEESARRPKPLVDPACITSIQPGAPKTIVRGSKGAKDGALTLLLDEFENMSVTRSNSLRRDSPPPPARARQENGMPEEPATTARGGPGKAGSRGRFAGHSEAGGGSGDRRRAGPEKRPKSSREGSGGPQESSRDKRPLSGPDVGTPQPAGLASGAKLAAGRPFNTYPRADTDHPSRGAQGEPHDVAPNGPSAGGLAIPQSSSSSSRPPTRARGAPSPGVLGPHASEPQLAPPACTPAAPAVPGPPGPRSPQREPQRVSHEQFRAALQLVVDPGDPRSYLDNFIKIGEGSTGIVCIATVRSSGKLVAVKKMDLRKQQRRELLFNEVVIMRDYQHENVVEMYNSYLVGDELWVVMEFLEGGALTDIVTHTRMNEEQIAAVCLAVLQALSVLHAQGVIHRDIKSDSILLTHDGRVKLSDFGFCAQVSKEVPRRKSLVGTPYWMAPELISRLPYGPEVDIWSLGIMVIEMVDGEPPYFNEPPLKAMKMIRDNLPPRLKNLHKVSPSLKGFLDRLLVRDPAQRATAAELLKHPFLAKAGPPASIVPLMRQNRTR
UniProt P09619, whole entry: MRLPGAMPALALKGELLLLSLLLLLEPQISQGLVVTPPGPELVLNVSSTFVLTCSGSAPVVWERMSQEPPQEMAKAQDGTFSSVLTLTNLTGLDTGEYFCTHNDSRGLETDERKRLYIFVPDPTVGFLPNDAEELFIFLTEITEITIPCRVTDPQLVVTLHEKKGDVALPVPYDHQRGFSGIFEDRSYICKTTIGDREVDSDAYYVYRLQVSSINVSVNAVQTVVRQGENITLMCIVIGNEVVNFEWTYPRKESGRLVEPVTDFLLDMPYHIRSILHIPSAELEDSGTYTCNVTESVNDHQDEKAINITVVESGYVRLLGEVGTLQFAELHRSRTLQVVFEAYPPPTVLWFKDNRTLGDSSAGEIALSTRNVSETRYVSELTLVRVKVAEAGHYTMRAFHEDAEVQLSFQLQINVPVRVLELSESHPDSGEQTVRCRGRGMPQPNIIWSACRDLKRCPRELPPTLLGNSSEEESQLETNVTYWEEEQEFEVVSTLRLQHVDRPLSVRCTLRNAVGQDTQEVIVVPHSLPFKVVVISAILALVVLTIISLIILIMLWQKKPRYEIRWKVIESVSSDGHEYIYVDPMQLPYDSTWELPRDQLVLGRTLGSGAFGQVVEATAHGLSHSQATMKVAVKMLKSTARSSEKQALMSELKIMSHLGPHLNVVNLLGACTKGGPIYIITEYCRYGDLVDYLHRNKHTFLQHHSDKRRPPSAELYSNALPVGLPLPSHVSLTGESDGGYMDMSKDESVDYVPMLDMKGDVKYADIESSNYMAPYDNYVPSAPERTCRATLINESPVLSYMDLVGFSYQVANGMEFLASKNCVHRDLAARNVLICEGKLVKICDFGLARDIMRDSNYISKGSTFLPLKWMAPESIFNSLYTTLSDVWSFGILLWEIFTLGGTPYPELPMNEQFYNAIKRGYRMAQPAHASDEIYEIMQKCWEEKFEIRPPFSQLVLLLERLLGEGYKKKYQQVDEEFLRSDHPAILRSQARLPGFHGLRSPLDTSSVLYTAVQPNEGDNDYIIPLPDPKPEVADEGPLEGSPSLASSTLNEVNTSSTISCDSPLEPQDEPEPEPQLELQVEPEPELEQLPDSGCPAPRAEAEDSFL
UniProt Q15118, whole entry, looked up: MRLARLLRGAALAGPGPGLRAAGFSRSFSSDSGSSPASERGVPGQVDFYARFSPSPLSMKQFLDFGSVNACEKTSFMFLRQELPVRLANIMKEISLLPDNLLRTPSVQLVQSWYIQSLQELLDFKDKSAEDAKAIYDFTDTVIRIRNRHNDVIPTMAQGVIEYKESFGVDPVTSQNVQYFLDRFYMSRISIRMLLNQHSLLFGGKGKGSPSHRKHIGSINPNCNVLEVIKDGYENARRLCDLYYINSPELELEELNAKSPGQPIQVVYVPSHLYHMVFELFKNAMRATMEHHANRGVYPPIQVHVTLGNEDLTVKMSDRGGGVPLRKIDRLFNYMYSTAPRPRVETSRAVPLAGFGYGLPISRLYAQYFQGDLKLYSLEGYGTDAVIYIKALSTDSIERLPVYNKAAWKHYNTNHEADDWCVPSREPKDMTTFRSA
UniProt P42356, whole entry, looked up: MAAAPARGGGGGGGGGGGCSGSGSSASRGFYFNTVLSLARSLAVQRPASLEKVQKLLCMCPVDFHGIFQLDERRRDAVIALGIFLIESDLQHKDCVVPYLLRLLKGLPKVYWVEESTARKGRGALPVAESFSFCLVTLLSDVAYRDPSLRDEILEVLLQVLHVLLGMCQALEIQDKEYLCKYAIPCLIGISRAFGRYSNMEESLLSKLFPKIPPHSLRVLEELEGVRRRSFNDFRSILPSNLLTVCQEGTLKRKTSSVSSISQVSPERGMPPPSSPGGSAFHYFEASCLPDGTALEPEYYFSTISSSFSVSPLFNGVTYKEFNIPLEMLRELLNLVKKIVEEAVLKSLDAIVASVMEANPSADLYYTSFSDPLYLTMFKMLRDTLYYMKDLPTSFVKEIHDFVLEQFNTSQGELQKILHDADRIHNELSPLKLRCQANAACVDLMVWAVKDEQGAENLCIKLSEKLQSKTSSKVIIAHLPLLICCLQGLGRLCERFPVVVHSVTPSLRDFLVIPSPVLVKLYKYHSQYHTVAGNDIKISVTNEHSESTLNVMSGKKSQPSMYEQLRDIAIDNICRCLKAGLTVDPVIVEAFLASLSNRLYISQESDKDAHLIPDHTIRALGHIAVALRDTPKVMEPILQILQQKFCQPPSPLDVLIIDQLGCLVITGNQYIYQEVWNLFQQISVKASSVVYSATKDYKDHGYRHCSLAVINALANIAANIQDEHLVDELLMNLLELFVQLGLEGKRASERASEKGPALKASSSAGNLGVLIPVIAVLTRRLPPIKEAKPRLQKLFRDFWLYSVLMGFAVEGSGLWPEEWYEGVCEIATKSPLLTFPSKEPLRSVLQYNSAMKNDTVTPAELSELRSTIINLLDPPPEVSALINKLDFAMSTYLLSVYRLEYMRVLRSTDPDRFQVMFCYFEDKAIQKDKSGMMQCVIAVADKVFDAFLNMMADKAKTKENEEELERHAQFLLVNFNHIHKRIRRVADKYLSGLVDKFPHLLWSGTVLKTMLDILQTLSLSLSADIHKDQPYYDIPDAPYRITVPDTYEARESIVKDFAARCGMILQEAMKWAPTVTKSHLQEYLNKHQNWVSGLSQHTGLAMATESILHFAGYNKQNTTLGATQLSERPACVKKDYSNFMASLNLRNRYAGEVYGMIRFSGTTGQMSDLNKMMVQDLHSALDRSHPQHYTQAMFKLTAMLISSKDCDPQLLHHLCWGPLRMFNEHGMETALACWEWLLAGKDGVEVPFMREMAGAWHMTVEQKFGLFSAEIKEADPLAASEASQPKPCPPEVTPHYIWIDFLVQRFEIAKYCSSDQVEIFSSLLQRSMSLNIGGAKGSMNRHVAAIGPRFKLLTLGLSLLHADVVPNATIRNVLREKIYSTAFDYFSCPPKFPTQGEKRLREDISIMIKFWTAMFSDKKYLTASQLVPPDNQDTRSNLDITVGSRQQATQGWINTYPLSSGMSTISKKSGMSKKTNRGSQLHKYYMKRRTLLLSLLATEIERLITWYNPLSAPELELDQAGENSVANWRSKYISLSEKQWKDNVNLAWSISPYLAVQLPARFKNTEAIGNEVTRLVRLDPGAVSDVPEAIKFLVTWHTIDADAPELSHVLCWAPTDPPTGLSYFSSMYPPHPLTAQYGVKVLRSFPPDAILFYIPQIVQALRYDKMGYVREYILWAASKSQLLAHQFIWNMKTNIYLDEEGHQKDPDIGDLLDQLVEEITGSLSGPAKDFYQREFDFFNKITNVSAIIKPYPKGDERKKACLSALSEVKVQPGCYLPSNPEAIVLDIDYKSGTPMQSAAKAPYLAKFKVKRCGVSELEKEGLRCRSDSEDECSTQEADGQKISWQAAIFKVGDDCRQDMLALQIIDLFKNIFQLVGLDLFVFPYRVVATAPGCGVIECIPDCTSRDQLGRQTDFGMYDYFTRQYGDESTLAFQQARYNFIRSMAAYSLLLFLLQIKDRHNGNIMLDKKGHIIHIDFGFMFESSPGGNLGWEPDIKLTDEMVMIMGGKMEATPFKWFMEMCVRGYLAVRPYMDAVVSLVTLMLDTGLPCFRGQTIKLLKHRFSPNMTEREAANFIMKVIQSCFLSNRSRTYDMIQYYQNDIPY
UniProt Q9UBF8: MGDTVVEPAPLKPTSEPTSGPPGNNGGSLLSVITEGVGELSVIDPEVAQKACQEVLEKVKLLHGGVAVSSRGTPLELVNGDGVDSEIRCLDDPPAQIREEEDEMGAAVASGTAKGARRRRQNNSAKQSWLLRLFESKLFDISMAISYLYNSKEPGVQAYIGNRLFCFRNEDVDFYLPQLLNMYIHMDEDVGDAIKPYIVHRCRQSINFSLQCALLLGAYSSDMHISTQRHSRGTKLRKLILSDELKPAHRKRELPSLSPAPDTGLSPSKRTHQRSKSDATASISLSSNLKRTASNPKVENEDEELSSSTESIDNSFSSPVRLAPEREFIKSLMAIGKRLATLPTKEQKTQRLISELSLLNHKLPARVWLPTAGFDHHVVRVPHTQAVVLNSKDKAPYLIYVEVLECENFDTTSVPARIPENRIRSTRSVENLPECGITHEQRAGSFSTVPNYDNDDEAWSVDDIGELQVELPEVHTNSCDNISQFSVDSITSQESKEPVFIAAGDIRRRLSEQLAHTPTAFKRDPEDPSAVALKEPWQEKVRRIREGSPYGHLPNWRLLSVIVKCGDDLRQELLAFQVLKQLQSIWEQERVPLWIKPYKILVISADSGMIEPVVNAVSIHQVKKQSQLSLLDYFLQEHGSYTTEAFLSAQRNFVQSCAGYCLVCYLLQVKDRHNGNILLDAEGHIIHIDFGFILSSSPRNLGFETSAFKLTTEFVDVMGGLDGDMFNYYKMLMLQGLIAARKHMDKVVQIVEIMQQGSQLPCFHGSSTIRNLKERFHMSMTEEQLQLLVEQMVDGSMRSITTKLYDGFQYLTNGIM
UniProt P53350, whole entry: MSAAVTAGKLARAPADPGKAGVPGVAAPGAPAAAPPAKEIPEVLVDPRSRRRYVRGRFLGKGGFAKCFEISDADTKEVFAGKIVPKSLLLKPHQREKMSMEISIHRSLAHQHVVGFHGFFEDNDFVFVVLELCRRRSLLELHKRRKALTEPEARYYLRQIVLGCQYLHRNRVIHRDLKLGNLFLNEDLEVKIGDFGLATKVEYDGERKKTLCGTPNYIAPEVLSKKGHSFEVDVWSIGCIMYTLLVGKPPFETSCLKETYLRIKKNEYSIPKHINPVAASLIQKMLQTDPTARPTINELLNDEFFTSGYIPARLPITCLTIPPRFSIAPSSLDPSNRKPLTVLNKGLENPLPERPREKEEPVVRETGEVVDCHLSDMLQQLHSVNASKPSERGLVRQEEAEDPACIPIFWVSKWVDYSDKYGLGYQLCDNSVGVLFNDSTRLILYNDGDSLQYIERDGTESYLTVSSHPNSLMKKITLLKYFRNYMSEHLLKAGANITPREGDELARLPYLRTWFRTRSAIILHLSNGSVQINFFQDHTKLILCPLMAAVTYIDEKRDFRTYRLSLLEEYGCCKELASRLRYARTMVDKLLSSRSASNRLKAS

Compound | number of time points [1] | number of time points [2] | number of time points [3] | number of time points [4] | number of time points [5] | number of time points [6] | number of time points [7] | number of time points [8] | number of time points [9] | number of time points [10]
C=CC(=O)Nc1cccc(Nc2nc(Nc3ccc(OCCOC)cc3)ncc2F)c1 [Spebrutinib] (10 µM) | 0 | 0 | 0 | 0 | 0 | 0 | 0 | 1 | 0 | 0
Cc1cccc([C@@H](CO)NC(=O)[C@@H](C)N2Cc3ccc(-c4nc(NC5CCOCC5)ncc4Cl)cc3C2=O)c1 [ERK1/2 inhibitor 1] (10 µM) | 0 | 0 | 0 | 0 | 0 | 0 | 0 | 0 | 0 | 0
O=C1c2ccccc2-c2n[nH]c3cccc1c23 (10 µM) | 0 | 0 | 0 | 0 | 0 | 0 | 0 | 0 | 0 | 0
N#C/C(=C\c1ccc(O)c(O)c1)C(=O)NCc1ccccc1 (10 µM) | 0 | 0 | 0 | 0 | 0 | 0 | 0 | 0 | 0 | 0
CN1CCN(c2ccc(Nc3cc(-c4cccc(-n5ccc6cc(C7CC7)cc(F)c6c5=O)c4CO)cn(C)c3=O)nc2)CC1 (2.5 µM) | 0 | 0 | 0 | 0 | 0 | 0 | 0 | 0 | 0 | 0
COCc1c(-c2ccc(NC(=O)Nc3cc(C(F)(F)F)ccc3F)c(F)c2)c2c(N)ncnn2c1CN1CCOCC1 (2.5 µM) | 0 | 0 | 0 | 0 | 0 | 0 | 0 | 0 | 0 | 0
O=c1cc(-c2ccccc2)oc2c(O)c(O)ccc12 [7,8-Dihydroxyflavone] (10 µM) | 0 | 0 | 0 | 0 | 0 | 0 | 0 | 0 | 0 | 0
O=C(c1ccc(-c2ccc(Cl)cc2)o1)N(Cc1ccccn1)c1ccc(N2CCNCC2)cc1 [MK2-IN-1 (hydrochloride)] (10 µM) | 0 | 0 | 0 | 0 | 0 | 1 | 0 | 1 | 0 | 0
Nc1ncnc2c1c(-c1ccc(Oc3ccccc3)cc1)cn2C1CCCC1 (2.5 µM) | 0 | 0 | 0 | 0 | 0 | 0 | 0 | 0 | 0 | 0
C=CC(=O)N1C[C@H](Nc2ncnc3[nH]ccc23)CC[C@@H]1C [Ritlecitinib] (10 µM) | 0 | 0 | 0 | 0 | 0 | 0 | 0 | 0 | 0 | 0
CCCCC[C@H](O)CC(=O)CCc1ccc(O)c(OC)c1 [[6]-Gingerol] (10 µM) | 0 | 0 | 0 | 0 | 0 | 0 | 0 | 0 | 0 | 0
C[C@]1(O)C[C@@H](c2nc(-c3ccc4ccc(-c5ccccc5)nc4c3)c3c(N)nccn32)C1 [Linsitinib] (2.5 µM) | 0 | 0 | 0 | 0 | 0 | 0 | 0 | 0 | 0 | 0
COc1cc2ncnc(Nc3ccc(O)cc3)c2cc1OC (10 µM) | 0 | 0 | 0 | 0 | 0 | 0 | 0 | 0 | 0 | 0
COc1cc(N2CCC(N)CC2)ccc1Nc1ncc(Cl)c(-c2c[nH]c3ccccc23)n1 (2.5 µM) | 0 | 0 | 0 | 0 | 0 | 0 | 0 | 0 | 0 | 0
Cc1c(C(=O)N2CCOc3ccc(-c4ccc(N)nc4)cc3C2)ccc(S(C)(=O)=O)c1F (10 µM) | 0 | 0 | 0 | 0 | 0 | 4 | 0 | 0 | 0 | 0
CC(C)(C)S(=O)(=O)c1cc2c(Nc3ccc4scnc4c3)ncnc2cc1OCCO (2.5 µM) | 0 | 0 | 0 | 0 | 0 | 0 | 0 | 0 | 0 | 0
CCN(CC)CCCCNc1ncc2cc(-c3c(Cl)cccc3Cl)c(NC(=O)NC(C)(C)C)nc2n1 (2.5 µM) | 1 | 0 | 0 | 2 | 0 | 0 | 0 | 0 | 0 | 0
O=C([O-])c1ccccc1O.[Na+] [Sodium Salicylate] (10 µM) | 0 | 0 | 0 | 0 | 0 | 0 | 0 | 0 | 0 | 0
Cc1ccc2c(Nc3ccc(Cl)cc3)nccc2c1Nc1ncccc1-c1ncnc2nc[nH]c12 [Raf inhibitor 1] (2.5 µM) | 0 | 0 | 0 | 0 | 0 | 0 | 0 | 0 | 0 | 0
COc1c(Cl)cc2c([nH]c3cnccc32)c1NC(=O)c1cccnc1C (10 µM) | 0 | 0 | 0 | 0 | 0 | 0 | 0 | 0 | 0 | 0
NS(=O)(=O)c1ccc(Nc2nc(OCC3CCCCC3)c3[nH]cnc3n2)cc1 (10 µM) | 0 | 0 | 0 | 0 | 0 | 0 | 0 | 0 | 0 | 0
CCN1C(=O)N(c2c(F)c(OC)cc(OC)c2F)Cc2cnc3[nH]c(CN4CCOCC4)cc3c21 [Pemigatinib] (10 µM) | 0 | 0 | 0 | 0 | 0 | 0 | 0 | 0 | 0 | 0
O=c1oc2ccccc2c(O)c1Cc1c(O)c2ccccc2oc1=O [Dicoumarol] (10 µM) | 0 | 0 | 0 | 0 | 0 | 0 | 0 | 0 | 0 | 0

Compound | number of time points [1] | number of time points [2] | number of time points [3] | number of time points [4] | number of time points [5] | number of time points [6] | number of time points [7] | number of time points [8] | number of time points [9] | number of time points [10]
COc1cc(C=C(C#N)C(N)=O)cc(CSc2nc3ccccc3s2)c1O (10 µM) | 0 | 0 | 0 | 0 | 0 | 0 | 0 | 0 | 0 | 0
CNC(=O)c1cccc2cc(Oc3ccnc4cc(OCC5(N)CC5)c(OC)cc34)ccc12 [Lucitanib] (10 µM) | 0 | 0 | 0 | 0 | 0 | 0 | 0 | 0 | 0 | 0
CNC(=O)c1ccccc1Nc1nc(Nc2ccc(N3CCOCC3)cc2OC)ncc1Cl (2.5 µM) | 0 | 0 | 0 | 0 | 0 | 0 | 0 | 0 | 0 | 0
C=CC(=O)N1CCN(CCCn2c(=O)c(-c3c(Cl)c(OC)cc(OC)c3Cl)cc3cnc(NC)nc32)CC1 (10 µM) | 0 | 0 | 0 | 0 | 0 | 0 | 0 | 0 | 0 | 0
FC(F)(F)c1ccc(CNc2ccc(Cc3c[nH]c4ncc(Cl)cc34)cn2)cc1 (10 µM) | 0 | 0 | 0 | 0 | 0 | 0 | 0 | 0 | 0 | 0
O=c1cc(N2CCOCC2)oc2c(-c3ccccc3)cccc12 (10 µM) | 0 | 0 | 0 | 0 | 0 | 0 | 0 | 0 | 0 | 0
COc1cc2ncnc(Nc3cccc(Cl)c3F)c2cc1OC(=O)N1CCN(C)C[C@H]1C [Zorifertinib] (10 µM) | 0 | 0 | 0 | 0 | 0 | 0 | 0 | 0 | 0 | 0
CN(C)Cc1ccc(-c2cnn3c(-c4cccc(NC(=O)c5cccc(C(F)(F)F)c5)c4)ccnc23)cc1 (2.5 µM) | 0 | 0 | 0 | 0 | 0 | 0 | 0 | 0 | 0 | 0
Cc1cc(N2CCOCC2)cc2[nH]c(-c3c(NC[C@@H](O)c4cccc(Cl)c4)cc[nH]c3=O)nc12 (10 µM) | 0 | 0 | 0 | 2 | 0 | 4 | 0 | 2 | 0 | 1
Cc1nc(-c2cnc(NC(C)C)n(C)c2=O)ccc1Oc1ccnc(-c2cnn(C)c2)c1 (2.5 µM) | 0 | 0 | 0 | 0 | 0 | 1 | 0 | 0 | 0 | 0
CCN1CCN(Cc2ccc(C(=O)Nc3ccc(C)c(Oc4ccc5c(c4)CC(=O)N5)c3)cc2C(F)(F)F)CC1 (2.5 µM) | 1 | 0 | 0 | 2 | 0 | 3 | 3 | 2 | 2 | 2
COc1nccc(-c2c(-c3ccc(F)cc3)ncn2C2CCC(O)CC2)n1 (stereo not given) (10 µM) | 0 | 0 | 0 | 0 | 0 | 0 | 0 | 0 | 0 | 0
CN(C)C(=O)/C(C#N)=C/c1ccc(-c2nc3cnc4[nH]ccc4c3n2C2CCCCC2)o1 (10 µM) | 0 | 0 | 0 | 0 | 0 | 0 | 0 | 0 | 0 | 0
O=C(/C=C/c1ccc(O)c(O)c1)c1ccc(O)cc1O [Butein] (10 µM) | 0 | 0 | 0 | 0 | 0 | 4 | 0 | 2 | 1 | 1
O=C(Nc1ccc(-c2ccnc(Nc3ccc(N4CCOCC4)cc3)n2)cc1)C1CCCN1 (stereo not given) (10 µM) | 0 | 0 | 0 | 0 | 0 | 0 | 0 | 0 | 0 | 0
O=C1Cc2c([nH]c3ccc(Br)cc23)-c2ncccc2N1 [1-Azakenpaullone] (10 µM) | 0 | 0 | 0 | 0 | 0 | 0 | 0 | 0 | 0 | 0
CCOc1ccn(-c2ccc(F)cc2)c(=O)c1C(=O)Nc1ccc(Oc2ccnc(N)c2Cl)c(F)c1 (10 µM) | 1 | 0 | 0 | 0 | 0 | 4 | 1 | 0 | 1 | 1
COc1cc(Nc2ncc3c(n2)-c2ccc(Cl)cc2C(c2c(F)cccc2OC)=NC3)ccc1C(=O)O [Alisertib] (2.5 µM) | 0 | 0 | 0 | 0 | 0 | 0 | 0 | 0 | 0 | 0
C[C@H](NC(=O)/C(C#N)=C/c1cccc(Br)n1)c1ccccc1 (2.5 µM) | 0 | 0 | 0 | 0 | 0 | 0 | 0 | 0 | 0 | 0
CNc1nc(-c2ccc3c(N)n[nH]c3c2)cc(N2C[C@@H](C(=O)NC3CCCCC3)CC[C@H]2C)n1 (10 µM) | 0 | 0 | 0 | 0 | 0 | 0 | 0 | 5 | 0 | 0
C=CC(=O)N[C@H]1COC[C@H]1Nc1ncc2cc(-c3c(Cl)c(OC)cc(OC)c3Cl)c(=O)n(C)c2n1 (10 µM) | 0 | 0 | 0 | 0 | 0 | 0 | 0 | 0 | 0 | 0
COc1cc(CCc2cc(-c3nc4ccc(N5CCN(C)CC5)cc4[nH]3)n[nH]2)cc(OC)c1 (10 µM) | 0 | 0 | 0 | 0 | 0 | 4 | 0 | 0 | 0 | 0
CN1CCC(Nc2ncc3ncnc(Nc4ccc(F)c(Cl)c4)c3n2)CC1 [Falnidamol] (10 µM) | 0 | 0 | 0 | 0 | 0 | 0 | 0 | 0 | 0 | 0

Three entries out of the list, sorted by heavy-atom count, smallest number first:
Compound | number of time points [1] | number of time points [2] | number of time points [3] | number of time points [4] | number of time points [5] | number of time points [6] | number of time points [7] | number of time points [8] | number of time points [9] | number of time points [10]
C[C@H](NC(=O)/C(C#N)=C/c1cccc(Br)n1)c1ccccc1 (2.5 µM) | 0 | 0 | 0 | 0 | 0 | 0 | 0 | 0 | 0 | 0
COc1c(Cl)cc2c([nH]c3cnccc32)c1NC(=O)c1cccnc1C (10 µM) | 0 | 0 | 0 | 0 | 0 | 0 | 0 | 0 | 0 | 0
CN(C)Cc1ccc(-c2cnn3c(-c4cccc(NC(=O)c5cccc(C(F)(F)F)c5)c4)ccnc23)cc1 (2.5 µM) | 0 | 0 | 0 | 0 | 0 | 0 | 0 | 0 | 0 | 0
